# Assay results as given in patent US20240158517A1.
# Sequences of proteins named here, by UniProt entry; tags and fusion partners are left off.
# UniProt P32302: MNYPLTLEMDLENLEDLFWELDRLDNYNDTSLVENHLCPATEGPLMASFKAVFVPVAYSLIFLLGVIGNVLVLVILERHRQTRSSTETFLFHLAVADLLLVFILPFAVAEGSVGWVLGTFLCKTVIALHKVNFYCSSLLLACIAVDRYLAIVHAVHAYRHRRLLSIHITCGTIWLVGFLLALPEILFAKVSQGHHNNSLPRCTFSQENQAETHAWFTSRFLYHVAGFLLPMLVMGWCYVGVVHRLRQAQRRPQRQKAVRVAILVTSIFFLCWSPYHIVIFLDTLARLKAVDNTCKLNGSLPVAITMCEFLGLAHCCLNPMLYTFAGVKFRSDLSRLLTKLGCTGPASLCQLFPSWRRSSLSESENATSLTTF
# Results are given in words; binding and its absence hold for the method and conditions named. Some binding calls cover weakened binding; strength is not graded here.
# Biological target: human CXCR5 (human) (UniProt P32302)
# Test: binding to DX002 cells expressing CXCR5
binder,measurement,value
"afucosylated HFB2-4hG1 (antibody, V domains shown, afucosylated (no core fucose on the Fc N-glycan of the heavy chain)) VH: QVQLKESGPGLVAPSQSLSITCTVSGFSLTSYGVSWVRQPPGKGLEWLGVIWGDGSTNYHSGLISRLSISKDNSKSQVFLKLNSLQSDDTATYYCARVVYWGQGTLVTVSA VL: DIVMTQAAPSVPVTPGESISISCRSSKSLLHSNGKTYLYWFLQRPGQSPQLLLYRMSNLASGVPDRFSGSGSGTAFTLRISRVEAEDVGVYYCMQHLEYPYTFGGGTKLEIK",binding,binds
